Test results: patent publication US11072628B2, “Nucleoside analogues for the treatment of parasitic infections” (UNIVERSITEIT GENT, priority 2017, dated 2021)
Some results were stated once for a whole list of compounds, not compound by compound.

Tested on: T. b. brucei Squib 427
Assay: In vivo antiparasitic activity in mice (T. brucei; acute model)
Parameters: species or system Trypanosoma brucei brucei
Details: infected mice, 5 consecutive days; test compound 25 mg/kg PO b.i.d. (FH7429_D also 10 mg/kg s.i.d. IP); suramin 10 mg/kg; pre-set endpoint 21 dpi
Method: Female Swiss mice (BW 20-24 g; Janvier France) were allocated randomly to groups of 3 animals and infected intraperitoneally (IP) with 10^4 T. b. brucei Squib 427 derived from a heavily infected donor mouse. Drinking water and food were available ad libitum throughout the experiment. The test compound of the invention was formulated in 10% (V/V) PEG400 in water at 2 mg/mL and was freshly prepared at every administration. The test compound was administered orally (PO) b.i.d. for 5 days at 25 mg/kg. The reference drug suramin was formulated in PBS at 2.5 mg/mL and administered s.i.d. IP for 5 days at 10 mg/kg. Treatment was initiated ½ hour prior to the IP infection. […] Parasitemia analysis was performed by microscopic evaluation of tail vein blood samples at 4, 7, 10, 14 and 21 dpi (pre-set endpoint). As a test of cure, blood samples (250 μL) were collected from treated mice at 21 dpi and were sub-inoculated IP in naive Swiss mice followed by parasitemia follow-up.
Female Swiss mice (BW 20-24 g; Janvier France) were allocated randomly to groups of 3 animals and infected intraperitoneally (IP) with 104 T. b. brucei Squib 427 derived from a heavily infected donor mouse. Drinking water and food were available ad libitum throughout the experiment. The test compound of the invention was formulated in 10% (V/V) PEG400 in water at 2 mg/mL and was freshly prepared at every administration. […]

Row | SMILES | survival until day
1 | Nc1ncnc2c1ccn2[C@@H]1O[C@H](CO)C[C@H]1O [FH7429_D, 4-amino-N7-(3′-deoxy-β-D-ribofuranosyl)-pyrrolo[2,3-d]pyrimidine] | ≥ 21 days
2 | Nc1ncnc2c1c(-c1ccccn1)cn2[C@@H]1O[C@H](CO)[C@@H](O)[C@H]1O [TH1008, 4-amino-5-(pyrid-2-yl)-N7-(β-D-ribofuranosyl)-pyrrolo[2,3-d]pyrimidine] | ≥ 21 days
